PubChem BioAssay AID743454, Peter MacCallum Cancer Centre – 2014

- Aim: 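Search for knock-downs that restore vorinostat killing in resistant colon cancer cells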 (primary screen)
- Cell system: human HCT116-VR colon cancer cells, selected for vorinostat resistance
- Reagents: siRNA pool against human genes, 40 nM siRNA pool
- Time to read-out: vorinostat for 24 h, read-out about 72 h after transfection
- Conditions: vorinostat at 2.5 µM final
- Detection: 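Cell viability by CellTiter-Fluor and caspase 3/7 activity by luminescence, each scaled to mock wells per plate, duplicates averaged, then robust z-scored over all plates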
- Reading the numbers: viability robust z-score: higher = more viable cells than screen typical; caspase robust z-score: higher = more caspase 3/7 activity than screen typical
- Call rule: 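Hits are knock-downs in viability class RV1/RV2 or caspase class CA1/CA2, excluding ones that killed cells in the no-drug cell-count arm; hits then retested with single siRNAs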
The whole screen tested about 18,000 reagents; this is a part drawn at random. 450 of all reagents (2.5%) were called active. 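Single biological run; no consistent viability z cut-off exists, so the class columns, not z-scores, define the calls.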 A number with no mark means an inactive call.

| Target gene | viability hit class | caspase hit class | viability robust z-score | caspase robust z-score |
| --- | --- | --- | --- | --- |
| SERPINE1 | no change | no change | -0.04 | 0.12 |
| PAFAH2 | no change | no change | 0.78 | -0.13 |
| NCF1 | no change | no change | 0.84 | -0.38 |
| COA7 | no change | no change | 0.42 | -0.24 |
| FBXL7 | no change | no change | 0.66 | -0.79 |
| IL17D | no change | no change | 1.28 | 0.16 |
| RNF168 | no change | no change | -0.26 | 0.36 |
| GAGE4 | no change | no change | 0.81 | -0.6 |
| GLMN | no change | no change | -0.09 | -0.74 |
| DUSP10 | no change | no change | 0.39 | 0.03 |
| JARID2 | no change | no change | -0.86 | -0.98 |
| EVC | no change | no change | -0.53 | 0.28 |
| ELOC | no change | no change | 0.9 | 1.19 |
| ZNF174 | no change | no change | 0.69 | -0.28 |
| ASMTL | no change | no change | -3.42 | 2.73 |
| PSMB5 | no change | no change | -5.65 | 3.34 |
| LIN7B | no change | no change | -1.12 | 0.34 |
| COL8A2 | no change | no change | 0.14 | 0.88 |
| LCE5A | no change | no change | 0.2 | 1.31 |
| CEP41 | no change | no change | 0.02 | -0.02 |
| PARN | no change | no change | 0.34 | -0.67 |
| FBXW10 | no change | no change | -1.7 | -0.28 |
| EMP3 | no change | no change | -0.73 | -0.2 |
| CPNE7 | no change | no change | -0.45 | 0.5 |
| OSCAR | no change | no change | -0.29 | 1.39 |
| PM20D1 | no change | no change | -0.02 | -0.42 |
| RAB26 | no change | no change | -1.11 | 3.35 |
| ARRDC3 | no change | no change | -0.2 | -1.03 |
| CTBP2 | no change | no change | 1.38 | 0.02 |
| CD6 | no change | no change | 0.23 | 1.75 |
| SESN3 | no change | no change | 1.25 | -0.12 |
| CHKA | no change | no change | -0.36 | 0.66 |
| UNC93B1 | no change | no change | -2.04 | 0.66 |
| DUS1L | no change (active) | CA2 (caspase activation) | -3 | 5.62 |
| FJX1 | no change | no change | -0.18 | 0.76 |
| XKR5 | no change | no change | -0.22 | -0.31 |
| ADNP2 | no change | no change | -2.81 | -0.32 |
| GOLGA1 | no change (active) | CA1 (caspase activation) | -0.58 | 5.51 |
| RELB | no change | no change | 1.02 | 3.5 |

Records listed so far whose target name begins with P or p:
| Target gene | viability hit class | caspase hit class | viability robust z-score | caspase robust z-score |
| --- | --- | --- | --- | --- |
| PAFAH2 | no change | no change | 0.78 | -0.13 |
| PSMB5 | no change | no change | -5.65 | 3.34 |
| PARN | no change | no change | 0.34 | -0.67 |
| PM20D1 | no change | no change | -0.02 | -0.42 |
